Measurements published in publication PMC6477676, “Staufen2-mediated RNA recognition and localization requires combinatorial action of multiple domains”.

Key:
[1] = biological target: T1, mStau2 dsRBD1 (Mus musculus) (UniProt Q8CJ67); assay: SPR; conditions: up to 1 uM; SPR: HBS-EP (10 mM HEPES pH 7.4, 150 mM NaCl, 3 mM EDTA, 0.005% P20); recombinant protein; label: 5' 32P (EMSA), biotin (SPR); letters put together from the description
T1 sequence (looked up, limits assumed): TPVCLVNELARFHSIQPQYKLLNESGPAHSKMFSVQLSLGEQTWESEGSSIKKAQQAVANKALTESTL

[2] = biological target: T2, mStau2 dsRBD1-2 F40A (Mus musculus) (UniProt Q8CJ67); assay: SPR; conditions: Hill n 1.2, transient; SPR: HBS-EP (10 mM HEPES pH 7.4, 150 mM NaCl, 3 mM EDTA, 0.005% P20); recombinant protein; label: 5' 32P (EMSA), biotin (SPR); letters put together from the description
T2 sequence (looked up, limits assumed): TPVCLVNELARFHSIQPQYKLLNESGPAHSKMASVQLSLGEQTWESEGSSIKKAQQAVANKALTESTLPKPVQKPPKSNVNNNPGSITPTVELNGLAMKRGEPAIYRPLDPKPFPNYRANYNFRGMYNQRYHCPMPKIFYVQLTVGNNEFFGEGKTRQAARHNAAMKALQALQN

[3] = biological target: T3, mStau2 dsRBD1-2 H169A (Mus musculus) (UniProt Q8CJ67); assay: SPR; conditions: SPR: HBS-EP (10 mM HEPES pH 7.4, 150 mM NaCl, 3 mM EDTA, 0.005% P20), recombinant protein, label: 5' 32P (EMSA), biotin (SPR), letters put together from the description
T3 sequence (looked up, limits assumed): T2 sequence (looked up, limits assumed) with A33F, H162A

[4] = biological target: T4, mStau2 dsRBD1-2 K106A (Mus musculus) (UniProt Q8CJ67); assay: SPR; conditions: no fit, decreased; SPR: HBS-EP (10 mM HEPES pH 7.4, 150 mM NaCl, 3 mM EDTA, 0.005% P20); recombinant protein; label: 5' 32P (EMSA), biotin (SPR); letters put together from the description
T4 sequence (looked up, limits assumed): T2 sequence (looked up, limits assumed) with A33F, K99A

[5] = biological target: T5, mStau2 dsRBD1-2 K59A K60A (Mus musculus) (UniProt Q8CJ67); assay: SPR; conditions: Hill n 1, transient; SPR: HBS-EP (10 mM HEPES pH 7.4, 150 mM NaCl, 3 mM EDTA, 0.005% P20); recombinant protein; label: 5' 32P (EMSA), biotin (SPR); letters put together from the description
T5 sequence (looked up, limits assumed): T2 sequence (looked up, limits assumed) with A33F, K52A, K53A

[6] = biological target: T6, mStau2 dsRBD1-2 K60A (Mus musculus) (UniProt Q8CJ67); assay: SPR; conditions: Hill n 1, transient; SPR: HBS-EP (10 mM HEPES pH 7.4, 150 mM NaCl, 3 mM EDTA, 0.005% P20); recombinant protein; label: 5' 32P (EMSA), biotin (SPR); letters put together from the description
T6 sequence (looked up, limits assumed): T2 sequence (looked up, limits assumed) with A33F, K53A

[7] = biological target: T7, mStau2 dsRBD1-4 F40A F157A (Mus musculus) (UniProt Q8CJ67); assay: SPR; conditions: strongly decreased; SPR: HBS-EP (10 mM HEPES pH 7.4, 150 mM NaCl, 3 mM EDTA, 0.005% P20); recombinant protein; label: 5' 32P (EMSA), biotin (SPR); letters put together from the description
T7 sequence (looked up, limits assumed): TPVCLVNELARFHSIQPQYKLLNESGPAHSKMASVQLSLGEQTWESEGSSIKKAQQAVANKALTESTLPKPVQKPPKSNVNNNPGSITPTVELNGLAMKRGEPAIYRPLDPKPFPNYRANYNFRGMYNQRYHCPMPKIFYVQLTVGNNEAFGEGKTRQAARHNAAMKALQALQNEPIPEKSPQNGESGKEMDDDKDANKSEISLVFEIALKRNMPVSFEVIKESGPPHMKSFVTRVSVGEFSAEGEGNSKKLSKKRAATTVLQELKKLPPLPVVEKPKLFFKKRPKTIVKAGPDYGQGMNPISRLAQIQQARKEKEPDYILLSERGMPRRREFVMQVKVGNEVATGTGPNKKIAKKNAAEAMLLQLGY

[8] = biological target: T8, mStau2 dsRBD2 (Mus musculus) (UniProt Q8CJ67); assay: EMSA; conditions: binding only at >10 uM; EMSA: 5 nM RNA, protein buffer (40 mM Bis-Tris pH 7, 150 mM NaCl, 2 mM DTT presumed), 4% glycerol, 30 ug/mL yeast tRNA, RT; recombinant protein; label: 5' 32P (EMSA), biotin (SPR); letters put together from the description
T8 sequence (looked up, limits assumed): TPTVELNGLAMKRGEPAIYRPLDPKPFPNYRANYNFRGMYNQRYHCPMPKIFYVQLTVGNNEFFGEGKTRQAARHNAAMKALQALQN

[9] = biological target: T9, mStau2 linker-dsRBD2 (Mus musculus) (UniProt Q8CJ67); assay: EMSA; conditions: not improved vs dsRBD2; EMSA: 5 nM RNA, protein buffer (40 mM Bis-Tris pH 7, 150 mM NaCl, 2 mM DTT presumed), 4% glycerol, 30 ug/mL yeast tRNA, RT; recombinant protein; label: 5' 32P (EMSA), biotin (SPR); letters put together from the description
T9 sequence (looked up, limits assumed): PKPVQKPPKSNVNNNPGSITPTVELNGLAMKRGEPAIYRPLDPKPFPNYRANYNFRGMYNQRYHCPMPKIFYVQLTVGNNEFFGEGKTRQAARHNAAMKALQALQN

[10] = biological target: T10, mStau2 dsRBD1-2 F157A (Mus musculus) (UniProt Q8CJ67); assay: SPR; conditions: Hill n 1.2, strongly impaired; SPR: HBS-EP (10 mM HEPES pH 7.4, 150 mM NaCl, 3 mM EDTA, 0.005% P20); recombinant protein; label: 5' 32P (EMSA), biotin (SPR); letters put together from the description
T10 sequence (looked up, limits assumed): T2 sequence (looked up, limits assumed) with A33F, F150A

| Sequence | binding result [1] | Kd [2] [nM] | Kd ([3]; no fit, decreased) [nM] | Kd [4] [nM] | Kd [5] [nM] | Kd [6] [nM] | binding result [7] | binding result [8] | binding result [9] | Kd [10] [nM] | Kd ([3]; Hill n 1, strongly decreased) [nM] |
| --- | --- | --- | --- | --- | --- | --- | --- | --- | --- | --- | --- |
| GGUAUAUACAUGCACAUGCAAUUUGUGUAUGUGUAUGUAUAUA [SRS2+5] | no binding | > 1000 | > 1000 | > 1000 | > 1000 | > 1000 | binds more weakly | binds more weakly | binds more weakly | – | – |
| GGUAUGUGUGAAUGUGCAUGAAUAUAUAUAUAUAUGCAUAUAUAUAUUUGUAUAUGUUCACACAUG [SRS* (SRS3)] | – | – | – | – | > 1000 | – | binds more weakly | – | – | > 1000 | > 1000 |

Changes are numbered by the printed parent chain. For at least one entry, the source does not settle the construct or the ends of the probe. For some of these results: Negatives hold for the conditions tested. Protein sequences can lack the tags named with them. For some of these results: A weaker result is weaker than the reference pair of the same experiment. For some of these results: At least one verdict was read from the data and is not stated in words by the source.
